Data published in patent US20100137239A1, “GEMCITABINE COMBINATION THERAPY” (GLOUCESTER PHARMACEUTICALS, priority 2006, published 2010).

Tests used:
[1] = tested on: PANC-1 Human Pancreatic Tumor Xenograft; assay: PANC-1 xenograft tumor growth inhibition study (Example 3); assay type: in vivo, mouse xenograft
Description: (§1) (Madison, Wis.). […] Tumor measurements were converted to cubic millimeter tumor volume using the formula^(5): […] Final mean tumor volume ±SEM for each group was reported; animals experiencing partial or complete tumor regressions or animals experiencing technical or drug-related deaths were censored from these calculations. […] TGI values for each treatment group are reported at study completion; these calculations are based on the final study day. […] If partial tumor regression was reported in multiple animals within one group, a mean value was determined. Individual mice lacking palpable tumors were classified as undergoing complete regression (CR). Animals experiencing partial or complete tumor regressions were censored from TGI calculations. However, data from these animals was included in statistical analysis calculations. In addition, weight data from these animals was included in daily and final group calculations. Tumor Necrosis-Degree of tumor necrosis was rated at each tumor measurement using the following arbitrary index: [table]

[2] = tested on: BxPC-3 Human Pancreatic Tumor Xenograft; assay: BxPC-3 xenograft tumor growth inhibition study (Example 3); assay type: in vivo, mouse xenograft
Description: as §1

Question: With Nc1ccn([C@@H]2O[C@H](CO)[C@@H](O)C2(F)F)c(=O)n1 [Gemcitabine, gemcitabine] as the compound, how does the “Tumor Necrosis” value ([1]; Gemcitabine 40 mg/kg IP Q3Dx4) read?
Answer: 1/9 animals reported mild tumor necrosis and 4/9 reported moderate necrosis

Question: And the “Tumor Necrosis” value ([1]; Gemcitabine 80 mg/kg IP Q3Dx4)?
Answer: 1/9 animals reported slight tumor necrosis, 2/9 reported mild tumor necrosis, and 1/9 reported moderate necrosis

Question: What about the “Tumor Necrosis” value ([2]; Gemcitabine 40 mg/kg IP Q3Dx4) of the same compound?
Answer: 1/9 animals reported severe tumor necrosis

Question: And the “Tumor Necrosis” value ([2]; Gemcitabine 80 mg/kg IP Q3Dx4)?
Answer: 1/9 animals reported mild tumor necrosis

Question: Which results are given for C/C=C1\NC(=O)[C@H]2CSSCC/C=C/[C@H](CC(=O)N[C@H](C(C)C)C(=O)N2)OC(=O)[C@H](C(C)C)NC1=O [FK228, romidepsin]?
Answer: Tumor Necrosis ([1]; FK228 2.5 mg/kg IV Q4Dx3): 1/9 animals reported slight tumor necrosis, 1/9 reported mild tumor necrosis, 2/9 reported moderate necrosis, and 1/9 reported severe necrosis; Tumor Necrosis ([1]; FK228 5 mg/kg IV Q4Dx3): 2/9 animals reported slight tumor necrosis, and 1/9 reported moderate necrosis; Tumor Necrosis ([2]; FK228 2.5 mg/kg IV Q4Dx3): 2/9 animals reported mild tumor necrosis; Tumor Necrosis ([2]; FK228 5 mg/kg IV Q4Dx3): 2/9 animals reported mild tumor necrosis
